At least one structure is not confirmed: it was looked up by name or label, or the drawing left a doubt.
Test system: BLSCs
Experiment: Culturing BLSCs in medium containing RA or TGF-β to produce SBR and SBT cells
Format: cell-based, human
Conditions: StemBios-003 medium, 0.1 to 20 μM RA or 1 to 40 nM TGF-β, over 2-6 weeks
Description: The method for activation, purification, and expansion of BLSCs has been described in WO/2007/100845. In this example, BLSCs were purified from blood of a human subject using two methods. The isolated cells were analyzed by flow cytometry.
The purified BLSCs were cultured in StemBios-001. To produce SBR and SBT cells, BLSCs were cultured in a StemBios-002 medium for 2 weeks. Then, the BLSCs were cultured in a StemBios-003 medium containing 0.1 to 20 μM of RA or 1 to 40 nM of TGF-β for over 2˜6 weeks. […] These cells were named SBR and SBT cells respectively.

## CC1=C(/C=C/C(C)=C/C=C/C(C)=C/C(=O)O)C(C)(C)CCC1 [RA, retinoic acid]
  change of morphology and sizes of cultured BLSCs: gradually changed their morphology and sizes

Source: patent publication US8394630B2, “Producing a mammalian pluripotent cell population from mammalian blastomere-like stem cells (BLSCs)” (StemBios Technologies, Inc., priority 2009, dated 2013)
